No constants are given. Whether binding was seen depends on the method and setting. Binding seen in cells or lysates may run through a third protein. These calls come from enrichment with a bait or labelling near it, and not all partners need be listed.
Molecular target: PsbO1GFP (PsbO1^1-332GFP, full-length PsbO1 fused to GFP) expressed in Arabidopsis (Arabidopsis) (UniProt P23321)
Assay: affinity purification with mass spectrometry; GFP-trap purification of PsbO1GFP from Arabidopsis seedling lysate, bound proteins analysed by LC-MS/MS

Protein sequences, listed by entry. Tags and fused reporters are not part of them. Lines headed by an entry give the natural chain unless they say otherwise; changes in a name come on top.
UniProt P23321: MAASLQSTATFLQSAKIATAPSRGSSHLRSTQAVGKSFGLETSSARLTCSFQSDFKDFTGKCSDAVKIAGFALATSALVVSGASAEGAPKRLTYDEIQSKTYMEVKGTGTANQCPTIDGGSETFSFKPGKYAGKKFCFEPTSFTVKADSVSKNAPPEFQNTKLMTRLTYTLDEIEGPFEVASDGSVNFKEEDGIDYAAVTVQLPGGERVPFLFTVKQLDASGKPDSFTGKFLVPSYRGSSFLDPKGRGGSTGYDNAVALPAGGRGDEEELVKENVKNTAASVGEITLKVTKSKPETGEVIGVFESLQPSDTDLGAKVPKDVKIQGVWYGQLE

Row | Binder | binding
1 | HSP90C, endogenous in Arabidopsis seedlings (protein, UniProt Q9SIF2 61-780) CDAAVAEKETTEEGSGEKFEYQAEVSRLLDLIVHSLYSHKEVFLRELVSNASDALDKLRFLSVTEPSLLGDGGDLEIRIKPDPDNGTITITDTGIGMTKEELIDCLGTIAQSGTSKFLKALKENKDLGADNGLIGQFGVGFYSAFLVAEKVVVSTKSPKSDKQYVWESVADSSSYLIREETDPDNILRRGTQITLYLREDDKYEFAESTRIKNLVKNYSQFVGFPIYTWQEKSRTIEVEEDEPVKEGEEGEPKKKKTTKTEKYWDWELANETKPLWMRNSKEVEKGEYNEFYKKAFNEFLDPLAHTHFTTEGEVEFRSILYIPGMGPLNNEDVTNPKTKNIRLYVKRVFISDDFDGELFPRYLSFVKGVVDSDDLPLNVSREILQESRIVRIMRKRLIRKTFDMIQEISESENKEDYKKFWENFGRFLKLGCIEDTGNHKRITPLLRFFSSKNEEELTSLDDYIENMGENQKAIYYLATDSLKSAKSAPFLEKLIQKDIEVLYLVEPIDEVAIQNLQTYKEKKFVDISKEDLELGDEDEVKDREAKQEFNLLCDWIKQQLGDKVAKVQVSNRLSSSPCVLVSGKFGWSANMERLMKAQALGDTSSLEFMRGRRILEINPDHPIIKDLNAACKNAPESTEATRVVDLLYDTAIISSGFTPDSPAELGNKIYEMMAMAVGGRWGRVEEEEESSTVNEGDDKSGETEVVEPSEVRAESDPWQD | binds
2 | PsbS/CP22, endogenous in Arabidopsis seedlings (protein, UniProt Q9XF91 60-265) AAPKKVEKPKSKVEDGIFGTSGGIGFTKANELFVGRVAMIGFAASLLGEALTGKGILAQLNLETGIPIYEAEPLLLFFILFTLLGAIGALGDRGKFVDDPPTGLEKAVIPPGKNVRSALGLKEQGPLFGFTKANELFVGRLAQLGIAFSLIGEIITGKGALAQLNIETGIPIQDIEPLVLLNVAFFFFAAINPGNGKFITDDGEES | binds
